Data source: PubChem BioAssay AID504774 (Drosophila RNAi Screening Center, 2011)
The deposit covers about 23,000 reagents; below is a random part of those with a known target gene and a result. 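Values are quantile-normalised luminescence on an arbitrary scale; higher means more cells surviving MMS.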 Not all columns of the deposit are shown. No sequences are given here.

Test: 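Fly genes whose loss alters survival after alkylation damage to DNA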 (primary screen)
Cells: Drosophila Kc167 cells
Knock-down reagent: long dsRNA against Drosophila genes, about 0.25 µg dsRNA per well
Duration: about 6 days: 3 days knock-down, then 3 days with or without MMS
Conditions: methyl methanesulphonate 0.004% (w/v) for 3 days after knock-down
Measured: 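ATP-dependent luminescence as a measure of live cells in MMS-exposed wells, quantile normalised within each plate, with replicate values also given as a mean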
Direction: mean viability with MMS and viability with MMS: higher = more surviving cells after MMS

CG14014 [DRSC02345] scored mean viability with MMS 3.61e6; viability with MMS, replicate 1 = 4.13e6.
With knock-down of CG1640 [DRSC19750], the record shows mean viability with MMS 3.58e6; viability with MMS, replicate 1 = 3.94e6.
Against CG11741 [DRSC14367], the values are mean viability with MMS 3.69e6; viability with MMS, replicate 1 = 4.14e6.
Against Spn27A (Serpin 27A) [DRSC03608], the values are mean viability with MMS 3.58e6; viability with MMS, replicate 1 = 4.07e6.
dpr1 (defective proboscis extension response 1) [DRSC05906] showed mean viability with MMS 3.64e6; viability with MMS, replicate 1 = 4.13e6.
Against dpr1 (defective proboscis extension response 1) [DRSC06399] the deposit lists mean viability with MMS 3.66e6; viability with MMS, replicate 1 = 4.08e6.
For Gs1 (Glutamine synthetase 1) [DRSC00753], the entry reads mean viability with MMS 3.29e6; viability with MMS, replicate 1 = 3.25e6.
lms (lateral muscles scarcer) [DRSC06387] scored mean viability with MMS 3.39e6; viability with MMS, replicate 1 = 3.79e6.
Knock-down of ap (apterous) [DRSC04917] resulted in: mean viability with MMS 3.34e6; viability with MMS, replicate 1 = 3.70e6.
Silencing of CG16998 [DRSC10235] gave: mean viability with MMS 3.69e6; viability with MMS, replicate 1 = 4.12e6.
Silencing of CG1143 [DRSC08188] gave: mean viability with MMS 3.81e6; viability with MMS, replicate 1 = 4.23e6.
Against CG3581 [DRSC15499], the values are mean viability with MMS 3.59e6; viability with MMS, replicate 1 = 4.08e6.
Knock-down of Qtzl (Quetzalcoatl) [DRSC01221] gave: mean viability with MMS 3.40e6; viability with MMS, replicate 1 = 3.80e6.
After knock-down of aft (adrift) [DRSC07576] the results were mean viability with MMS 3.57e6; viability with MMS, replicate 1 = 3.90e6.
loopin-1 [DRSC06888] gave mean viability with MMS 3.57e6; viability with MMS, replicate 1 = 4.10e6.
With knock-down of Taf3 (TBP-associated factor 3) [DRSC17170], the record shows mean viability with MMS 3.16e6; viability with MMS, replicate 1 = 3.74e6.
Depletion of Tace [DRSC16340] came out at: mean viability with MMS 3.69e6; viability with MMS, replicate 1 = 4.16e6.
With knock-down of ave (aveugle) [DRSC05502], the screen gave mean viability with MMS 3.70e6; viability with MMS, replicate 1 = 4.21e6.
Against mRpL51 (mitochondrial ribosomal protein L51) [DRSC02200], the values are mean viability with MMS 3.44e6; viability with MMS, replicate 1 = 3.73e6.
After knock-down of enc (encore) [DRSC08716], the screen gave mean viability with MMS 3.45e6; viability with MMS, replicate 1 = 4.00e6.
Against CG31867 [DRSC03338] the deposit lists mean viability with MMS 3.56e6; viability with MMS, replicate 1 = 4.11e6.
TwdlU (TweedleU) [DRSC12224] scored mean viability with MMS 3.42e6; viability with MMS, replicate 1 = 3.76e6.
CG7634 [DRSC11843] gave mean viability with MMS 3.64e6; viability with MMS, replicate 1 = 4.11e6.
Lsd-2 (Lipid storage droplet-2) [DRSC20143] showed mean viability with MMS 3.64e6; viability with MMS, replicate 1 = 3.99e6.
After knock-down of bsd (back seat driver) [DRSC05953], the record shows mean viability with MMS 3.57e6; viability with MMS, replicate 1 = 3.79e6.
For Amun [DRSC19847] the deposit lists mean viability with MMS 3.63e6; viability with MMS, replicate 1 = 4.18e6.
CG3123 [DRSC00570] showed mean viability with MMS 3.28e6; viability with MMS, replicate 1 = 3.67e6.
Against Ms (Myosuppressin) [DRSC16041], the values are mean viability with MMS 3.56e6; viability with MMS, replicate 1 = 3.99e6.
Silencing of Strump (Strumpellin) [DRSC09872] gave: mean viability with MMS 3.55e6; viability with MMS, replicate 1 = 4.10e6.
Depletion of CG43795 [DRSC04192] resulted in: mean viability with MMS 3.78e6; viability with MMS, replicate 1 = 4.37e6.
With knock-down of CG43795 [DRSC04193], the screen gave mean viability with MMS 3.62e6; viability with MMS, replicate 1 = 4.10e6.
CG43795 [DRSC04194] showed mean viability with MMS 3.57e6; viability with MMS, replicate 1 = 4.06e6.
CG43795 [DRSC04309] gave mean viability with MMS 3.90e6; viability with MMS, replicate 1 = 4.26e6.
For CG43795 [DRSC04310], the entry reads mean viability with MMS 4.05e6; viability with MMS, replicate 1 = 4.66e6.
Against CG43795 [DRSC22826] the deposit lists mean viability with MMS 3.57e6; viability with MMS, replicate 1 = 4.04e6.
For CG31937 [DRSC00514] the deposit lists mean viability with MMS 3.44e6; viability with MMS, replicate 1 = 3.86e6.
After knock-down of qkr58E-3 (quaking related 58E-3) [DRSC04711] the results were mean viability with MMS 3.72e6; viability with MMS, replicate 1 = 4.46e6.
Knock-down of CG14879 [DRSC15003] resulted in: mean viability with MMS 3.72e6; viability with MMS, replicate 1 = 4.19e6.
With knock-down of osp (outspread) [DRSC01409], the screen gave mean viability with MMS 3.61e6; viability with MMS, replicate 1 = 3.95e6.
Depletion of osp (outspread) [DRSC03585] came out at: mean viability with MMS 3.44e6; viability with MMS, replicate 1 = 3.80e6.
With knock-down of CG11686 [DRSC14350], the record shows mean viability with MMS 3.66e6; viability with MMS, replicate 1 = 4.20e6.
With knock-down of ND-ASHI (NADH dehydrogenase (ubiquinone) ASHI subunit) [DRSC18291], the record shows mean viability with MMS 3.69e6; viability with MMS, replicate 1 = 4.36e6.
After knock-down of Amph (Amphiphysin) [DRSC07578], the screen gave mean viability with MMS 3.52e6; viability with MMS, replicate 1 = 3.95e6.
With knock-down of IFT52 (Intraflagellar transport 52) [DRSC03271], the screen gave mean viability with MMS 3.62e6; viability with MMS, replicate 1 = 4.14e6.
With knock-down of CG14958 [DRSC08417] the results were mean viability with MMS 3.44e6; viability with MMS, replicate 1 = 3.89e6.

Just “viability with MMS, replicate 1”, for 6 of the entries above:
aft (adrift) [DRSC07576]	3.90e6
loopin-1 [DRSC06888]	4.10e6
Taf3 (TBP-associated factor 3) [DRSC17170]	3.74e6
Tace [DRSC16340]	4.16e6
ave (aveugle) [DRSC05502]	4.21e6
mRpL51 (mitochondrial ribosomal protein L51) [DRSC02200]	3.73e6
